Laboratory results published in article doi:10.1101/153262.
No constants are given. Whether binding was seen depends on the method and setting. In cells and extracts the contact can be indirect. Binding calls can cover weak binding; strength is not graded here.

Legend:
[1] = biological target: Enterococcus italicus Cas10 (Csm1) HD domain mutant (HD>AN) (Enterococcus italicus DSM-15952) (UniProt E6LHV7); experiment: co-purification
[2] = biological target: Enterococcus italicus Cas10 (Csm1) Palm domain mutant (GGDD>GGAA) (Enterococcus italicus DSM-15952) (UniProt E6LHV7); experiment: co-purification

B1: Enterococcus italicus Csm5 subunit of the EiCsm(1-5) complex (protein, UniProt E6LHV3 1-349)
chain: MIEKVYQVKLKVYGPVHIGSGKIIRKQEYIYDRRKSLAHIVDGPNLVKFLNKKGKFTAYLQYLNTTKERADLYTFLRQEQIDTNDWKTFVLYTERVNQGKIDMKDHNPYSRTSTNRRQVDKGMNDLHLFVRDGRGDLYIPGSSLKGALRTVLEGANQSAEAFHSLSISDSLPIDPKNLAIYQKIDINKELKPMPLYRECVNVGTTVEFTMKINSDDWTIEKIEKQIQQAYLQYWNKWFVGMVTTPGGKAFIKGGGLPSVLHAKHRPTVLFLGGGTGFPSKTTHYLQKPKEQAQKDIFAILQRRFRNVYGKMATVPKNVPMVLKGTVNDSTNKWYQQGVCLLEFQPIGEA
Question: How did the binding [1] turn out when B1 was run?
Answer: binds

Question: And the binding [2]?
Answer: binds
